In PubChem BioAssay AID264 (DTP/NCI, 2004):
The list is a part of this screen's results and no random one: it gathers tests that were run many times, whatever their T/C, doses with no T/C, and many T/C values between a quarter and a half above the control. Other doses and runs of a compound stand elsewhere. T/C is the treated group as % of the vehicle group. Schedule codes are those of the source, taken here to give the interval after Q, in days (D) or hours (H), and the number of doses after X. Some values lie below zero, which means that the treated tumours became smaller. Some entries were tested several times; the values are given in rising order. Some T/C values carry the count of animals alive at the toxicity check (mostly the fifth day); without a count, all were alive then. Some doses have a count of surviving animals in place of a T/C: the source files T/C as zero there, which appears to mark a toxic dose or a test without result, not a measured value. Survivors were counted at the toxicity check, usually on the fifth day, unless a day is given; later deaths do not show. Some structures stand for samples that the source files as different forms (salt, stereo form or complex); doses refer to the form tested.

Test system: nude mice, LX-1 lung xenograft intrarenal, tumor weight T/C
Assay: NCI In Vivo Anticancer Drug Screen. Data for tumor model Human Lung LX-1 Xenograft (intrarenal inoculation) in NU/NU Swiss (nude) mice
Details: T/C endpoint: mean tumor weight change, higher T/C = larger tumour; for T/C: evaluated on day 11
In short: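 Readout: T/C, i.e. treated-group tumor measurement over vehicle-control measurement. Mice bearing transplantable tumors were dosed with compound or vehicle.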

[1] = dose: 300.0 mg/kg/injection, schedule: Q04DX003 (sc), vehicle: saline
[2] = dose: 600.0 mg/kg/injection, schedule: Q04DX003 (sc), vehicle: saline
[3] = dose: 150.0 mg/kg/injection, schedule: Q04DX003 (sc), vehicle: saline with Tween-80
[4] = dose: 4.0 mg/kg/injection, schedule: Q01DX010 (sc), vehicle: saline
[5] = dose: 37.5 mg/kg/injection, schedule: Q04DX003 (sc), vehicle: saline with Tween-80
[6] = dose: 6.0 mg/kg/injection, schedule: Q04DX003 (sc), vehicle: water
[7] = dose: 12.0 mg/kg/injection, schedule: Q04DX003 (sc), vehicle: water

## [Cl][Mn][Cl]
[1]
  survivor count: 0 of 6 on day 11
[2]
  survivor count: 0 of 6 on day 11

## Cc1cc(SCC(=O)c2ccc(Br)cc2)cc(C)[o+]1
dose: 100.0 mg/kg/injection, schedule: Q01DX010 (sc), vehicle: saline
  T/C: 129 % of control [2 of 2 alive on day 11]
dose: 400.0 mg/kg/injection, schedule: Q01DX010 (sc), vehicle: saline
  T/C: 129 % of control

## CO[C@@]12[C@H](COC(N)=O)C3=C(C(=O)C(C)=C(N)C3=O)N1C[C@@H]1N[C@@H]12
dose: 10.0 mg/kg/injection, schedule: Q04DX003 (sc), vehicle: saline
  survivor count: 0 of 6 on day 11
dose: 12.0 mg/kg/injection, schedule: Q04DX003 (sc), vehicle: saline
  survivor count: 0 of 6 on day 11 and 3 of 6 on day 11
dose: 12.0 mg/kg/injection, schedule: Q04DX003 (sc), vehicle: suspension in saline
  survivor count: 0 of 6 on day 11
dose: 24.0 mg/kg/injection, schedule: Q04DX003 (sc), vehicle: saline
  survivor count: 0 of 6 on day 11
dose: 24.0 mg/kg/injection, schedule: Q04DX003 (sc), vehicle: suspension in saline
  survivor count: 0 of 6 on day 11

## O=[N+]([O-])c1ccc(Sc2ccncn2)c([N+](=O)[O-])c1
[3]
  T/C: 125 % of control

## Cc1cc2nc3c(=O)[nH]c(=O)nc-3n(CC(O)C(O)C(O)C(O)CO)c2cc1C (centres undefined)
dose: 800.0 mg/kg/injection, schedule: Q01DX010 (sc), vehicle: saline with Tween-80
  survivor count: 1 of 3 on day 11

## CC(C)=CCNc1ncnc2c1ncn2C1OC(CO)C(O)C1O (centres undefined)
dose: 100.0 mg/kg/injection, schedule: Q04DX003 (sc), vehicle: suspension in saline
  T/C: 125 % of control

## NC(=O)c1cn(C2OC(CO)C(O)C2O)c2ncnc(N)c12 (centres undefined)
[4]
  survivor count: 0 of 3 on day 11

## Cc1cc2c(c3oc(C4(C)OC4C4OC4C)cc(=O)c13)C(=O)c1c(O)c(C3CC(C)(N(C)C)C(O)C(C)O3)cc(C3CC(N(C)C)C(O)C(C)O3)c1C2=O (centres undefined)
dose: 0.13 mg/kg/injection, schedule: Q01DX010 (sc), vehicle: saline
  survivor count: 1 of 3 on day 11
dose: 0.25 mg/kg/injection, schedule: Q01DX010 (sc), vehicle: saline
  survivor count: 0 of 3 on day 11

## Cc1ccc2nc(-c3ccc4nc(-c5ccc(N=Nc6ccc(-c7nc8ccc(-c9nc%10ccc(C)c(S(=O)(=O)O)c%10s9)cc8s7)cc6)cc5)sc4c3)sc2c1S(=O)(=O)O
dose: 200.0 mg/kg/injection, schedule: Q04DX003 (sc), vehicle: suspension in saline
  T/C: 145 % of control

## COc1ccc2c(NCCCCCCCCNc3c4ccccc4nc4cc(OC)ccc34)c3ccccc3nc2c1
dose: 4.0 mg/kg/injection, schedule: Q04DX003 (sc), vehicle: suspension in saline
  T/C: 149 % of control
dose: 8.0 mg/kg/injection, schedule: Q04DX003 (sc), vehicle: suspension in saline
  T/C: 145 % of control

## c1ccc([C@H]2CN3CCSC3=N2)cc1
dose: 120.0 mg/kg/injection, schedule: Q04DX003 (sc), vehicle: saline
  survivor count: 0 of 6 on day 11
dose: 240.0 mg/kg/injection, schedule: Q04DX003 (sc), vehicle: saline
  survivor count: 0 of 6 on day 11

## Ic1ncnc2c1ncn2C1CCCO1 (centres undefined)
dose: 400.0 mg/kg/injection, schedule: Q04DX003 (sc), vehicle: Klucel (hydroxypropylcellulose) (HPC)
  T/C: 135 % of control

## c1csc(C[N+]23CN4CN(CN(C4)C2)C3)c1
dose: 800.0 mg/kg/injection, schedule: Q04DX003 (sc), vehicle: saline
  survivor count: 0 of 5 on day 11

## OCCOCC(F)(F)F
[2]
  T/C: 126 % of control
dose: 4800.0 mg/kg/injection, schedule: Q04DX003 (sc), vehicle: saline
  survivor count: 0 of 6 on day 11

## OC(C1CO1)C(O)C1CO1 (centres undefined)
[4]
  survivor count: 0 of 3 on day 11
dose: 8.0 mg/kg/injection, schedule: Q01DX010 (sc), vehicle: saline
  survivor count: 0 of 3 on day 11

## Cc1cc(NCCCN(C)C)c2ccc3c(ccc4c(NCCCN(C)C)cc(C)nc43)c2n1
[5]
  survivor count: 0 of 6 on day 11
dose: 75.0 mg/kg/injection, schedule: Q04DX003 (sc), vehicle: saline with Tween-80
  survivor count: 0 of 6 on day 11

## CCC1(O)CC2CN(CCc3c([nH]c4ccccc34)C(C(=O)OC)(c3cc4c(cc3OC)N(C)C3C(O)(C(N)=O)C(O)C5(CC)C=CCN6CCC43C65)C2)C1 (centres undefined) (tested in a mixture with another compound)
dose: 3.0 mg/kg/injection, schedule: Q04DX003 (sc), vehicle: water
  T/C: 8 [5 of 6 alive on day 11], 9, 15, 40 % of control
[6]
  T/C: 4 and 16 % of control
  survivor count: 3 of 6 on day 11
[7]
  T/C: -33 and 5 % of control
  survivor count: 0 of 6 on day 11
dose: 24.0 mg/kg/injection, schedule: Q04DX003 (sc), vehicle: water
  survivor count: 0 of 6 on day 11

## C[C@]12CC[C@H]3[C@@H](CCC4=C[C@@H](OC5OCC(OC6OC(CO)C(O)C(O)C6O)C(O)C5O)CC[C@@]43C=O)[C@@]1(O)CCC2C1=CC(=O)OC1 (some centres undefined)
dose: 15.0 mg/kg/injection, schedule: Q04DX003 (sc), vehicle: Klucel (hydroxypropylcellulose) (HPC)
  T/C: 128 % of control

## NS(=O)(=O)OCCCCCCCOS(N)(=O)=O
dose: 600.0 mg/kg/injection, schedule: Q04DX003 (ip), vehicle: saline with Tween-80
  survivor count: 0 of 6 on day 11
dose: 1200.0 mg/kg/injection, schedule: Q04DX003 (ip), vehicle: saline with Tween-80
  survivor count: 0 of 6 on day 11

## O=[N+]([O-])c1nccn1CC(O)CO (centres undefined)
[1]
  T/C: 133 % of control

## CC(=O)CC(C)=O.CC(=O)CC(C)=O.O=N[O-].O=N[O-].[Co]
[5]
  T/C: 129 % of control
[3]
  T/C: 149 % of control
dose: 300.0 mg/kg/injection, schedule: Q04DX003 (sc), vehicle: saline with Tween-80
  survivor count: 3 of 6 on day 11

## C[n+]1c2cc(N)ccc2cc2ccc(N)cc21
dose: 12.5 mg/kg/injection, schedule: Q01DX010 (sc), vehicle: saline
  survivor count: 0 of 3 on day 11
dose: 25.0 mg/kg/injection, schedule: Q01DX010 (sc), vehicle: saline
  survivor count: 0 of 3 on day 11
dose: 50.0 mg/kg/injection, schedule: Q01DX010 (sc), vehicle: saline
  survivor count: 0 of 3 on day 11

## O=C1c2c(O)ccc(O)c2C(=O)c2c(NCCNCCO)ccc(NCCNCCO)c21
dose: 2.0 mg/kg/injection, schedule: Q01DX010 (sc), vehicle: water
  survivor count: 1 of 3 on day 11
dose: 4.0 mg/kg/injection, schedule: Q01DX010 (sc), vehicle: acid diluted with saline
  survivor count: 0 of 3 on day 11
dose: 4.0 mg/kg/injection, schedule: Q01DX010 (sc), vehicle: water
  survivor count: 0 of 3 on day 11
dose: 20.0 mg/kg/injection, schedule: Q04DX003 (sc), vehicle: water
  survivor count: 0 of 6 on day 11
dose: 40.0 mg/kg/injection, schedule: Q04DX003 (sc), vehicle: water
  survivor count: 0 of 6 on day 11

## NC(=S)N/N=C/c1ccc(OC(=O)COc2ccc(Cl)cc2)cn1
dose: 2400.0 mg/kg/injection, schedule: Q04DX003 (sc), vehicle: saline with Tween-80
  survivor count: 2 of 6 on day 11

## ClCc1ccc2ccccc2n1
dose: 1200.0 mg/kg/injection, schedule: Q04DX003 (sc), vehicle: saline with Tween-80
  survivor count: 2 of 6 on day 11

## CC1CN1P1(N2CC2C)=NP(N2CC2C)(N2CC2C)=NP(N2CC2C)(N2CC2C)=N1 (centres undefined)
dose: 200.0 mg/kg/injection, schedule: Q01DX010 (sc), vehicle: saline
  survivor count: 0 of 3 on day 11, 0 of 6 on day 11, 1 of 6 on day 11

## [CH3][Sn]([CH3])([Cl])[S]CCN
dose: 150.0 mg/kg/injection, schedule: Q04DX003 (sc), vehicle: saline
  survivor count: 0 of 6 on day 11

## Oc1ccc(CCl)c2cccnc12
[2]
  survivor count: 3 of 6 on day 11
